Reference: the supplement of paper PMC6078165
Values are relative to the signal before dosing, not to a vehicle control; the signal also falls without drug.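 Fibroblast labels name human fibroblasts: mostly primary ones from tissues such as uterus (C12385, HUF), lung (H6013), bone (Hs27A), adrenal (HADF) and skin (WS1), plus mammary HMF and breast cancer-associated Hs343T. The cancer cells are basal-like or mesenchymal-like triple-negative breast cancer lines. The paper calls a changed response a hit when it shifts by more than 3x the replicate standard deviation. The tissue of the other fibroblasts is not given here.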

System: HCC1143
Experiment: relative JC-1 red fluorescence (viability) vs pre-drug, coculture with fibroblast (fraction); higher = more viable cancer cells
Method: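 JC-1 labelled TNBC cells cocultured 1:1 (1,500 cells each) with CellTrace Violet stained primary or stromal fibroblasts in 384-well plates in FluoroBrite medium, treated with one of 42 anticancer drugs at 0.1, 1, 10 or 100 uM. JC-1 red fluorescence (mitochondrial integrity in cancer cells only) was read by plate reader every 8 h for 72 h. Values are normalised to each well's pre-drug value. The stock of one drug was tenfold lower, so its dose labels may be too high.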

CC(C)(C#N)c1cc(Cn2cncn2)cc(C(C)(C)C#N)c1 [Anastrozole]
relative JC-1 red fluorescence
Details	8 h	16 h	24 h	32 h	40 h	48 h	56 h	64 h	72 h
0.1 µM, coculture fibroblast: C12385	0.849	0.736	0.674	0.602	0.536	0.486	0.442	0.397	0.374
0.1 µM, coculture fibroblast: H6013	0.76	0.684	0.637	0.613	0.553	0.55	0.51	0.491	0.446
0.1 µM, coculture fibroblast: H6019	0.791	0.706	0.653	0.586	0.532	0.501	0.446	0.402	0.368
0.1 µM, coculture fibroblast: H6076	0.81	0.833	0.798	0.756	0.708	0.695	0.674	0.657	0.673
0.1 µM, coculture fibroblast: H6231	0.837	0.799	0.728	0.659	0.623	0.6	0.554	0.522	0.499
0.1 µM, coculture fibroblast: HADF	0.7528	0.687	0.656	0.646	0.546	0.517	0.48	0.448	0.429
0.1 µM, coculture fibroblast: HCFa	0.7583	0.677	0.6249	0.5913	0.506	0.487	0.439	0.398	0.366
0.1 µM, coculture fibroblast: HCPF	0.793	0.782	0.705	0.623	0.61	0.57283	0.5292	0.498	0.4825
0.1 µM, coculture fibroblast: HHSteC	0.813	0.767	0.73	0.696	0.629	0.612	0.571	0.527	0.478
0.1 µM, coculture fibroblast: HMF	0.792	0.814	0.74	0.641	0.621	0.582	0.54	0.497	0.468
0.1 µM, coculture fibroblast: HPFa	0.8851	0.77358	0.7357	0.643	0.579	0.53123	0.4605	0.4001	0.359
0.1 µM, coculture fibroblast: HUF	0.86	0.777	0.721	0.642	0.583	0.544	0.488	0.447	0.423
0.1 µM, coculture fibroblast: Hs5	0.8195	0.828	0.773	0.74	0.67	0.639	0.608	0.575	0.572
0.1 µM, coculture fibroblast: Hs27A	0.702	0.598	0.551	0.553	0.416	0.386	0.34	0.31	0.299
0.1 µM, coculture fibroblast: Hs343T	0.806	0.782	0.846	0.735	0.766	0.739	0.677	0.646	0.613
0.1 µM, coculture fibroblast: WS1	0.802	0.74	0.7028	0.635	0.583	0.543	0.499	0.464	0.443
1 µM, coculture fibroblast: C12385	0.86	0.802	0.795	0.792	0.748	0.737	0.711	0.684	0.685
1 µM, coculture fibroblast: H6013	0.758	0.667	0.627	0.61	0.538	0.531	0.493	0.479	0.431
1 µM, coculture fibroblast: H6019	0.832	0.761	0.737	0.679	0.64	0.626	0.588	0.553	0.515
1 µM, coculture fibroblast: H6076	0.7908	0.79	0.726	0.67	0.6274	0.6057	0.56046	0.535	0.527
1 µM, coculture fibroblast: H6231	0.7714	0.769	0.666	0.566	0.5771	0.5387	0.496	0.459	0.425
1 µM, coculture fibroblast: HADF	0.7558	0.692	0.648	0.6485	0.561	0.542	0.5094	0.483	0.457
1 µM, coculture fibroblast: HCFa	0.7703	0.6446	0.618	0.602	0.503	0.475	0.427	0.392	0.356
1 µM, coculture fibroblast: HCPF	0.8111	0.791	0.746	0.664	0.663	0.642	0.596	0.562	0.545
1 µM, coculture fibroblast: HHSteC	0.883	0.805	0.7862	0.76243	0.699	0.676	0.632	0.606	0.555
1 µM, coculture fibroblast: HMF	0.8009	0.797	0.742	0.656	0.639	0.606	0.548	0.514	0.494
1 µM, coculture fibroblast: HPFa	0.912	0.813	0.766	0.696	0.615	0.575	0.508	0.459	0.415
1 µM, coculture fibroblast: HUF	0.9	0.825	0.762	0.684	0.626	0.582	0.519	0.481	0.444
1 µM, coculture fibroblast: Hs5	0.83	0.862	0.7929	0.7302	0.6782	0.641	0.5973	0.562	0.539
1 µM, coculture fibroblast: Hs27A	0.7418	0.67371	0.6513	0.679	0.5818	0.58	0.536	0.504	0.462
1 µM, coculture fibroblast: Hs343T	0.803	0.8	0.74	0.673	0.633	0.595	0.543	0.516	0.492
1 µM, coculture fibroblast: WS1	0.824	0.7049	0.661	0.584	0.518	0.482	0.443	0.411	0.394
